Reference: US20080108790 (published 2008)

What was measured:
[1] = general procedure: Fmoc solid-phase peptide synthesis; Sieber; diisopropylcarbodiimide/HOBt in NMP; conditions: cyclisation step
[2] = general procedure: Fmoc solid-phase peptide synthesis; Sieber resin; diisopropylcarbodiimide/HOBt in NMP; conditions: late stage modification step

With “Boc-Gly-Cyclo(Cys-Har-Gly-Asp(tBu)-Trp(Boc)-Pro-Cys)-Sieber” as the substance, how does the cyclisation yield [1] read?
The cyclisation yield was 100%.

What about the step yield [2] of the same substance?
Its step yield is 98.9%.
